Reference: the supplement of paper PMC10849652
The other results are listed elsewhere or left out.

Amino acid sequences for entries named in this document (tags omitted). A change or cut given only in a name is not applied to a line headed by its entry.
UniProt Q9BZF1: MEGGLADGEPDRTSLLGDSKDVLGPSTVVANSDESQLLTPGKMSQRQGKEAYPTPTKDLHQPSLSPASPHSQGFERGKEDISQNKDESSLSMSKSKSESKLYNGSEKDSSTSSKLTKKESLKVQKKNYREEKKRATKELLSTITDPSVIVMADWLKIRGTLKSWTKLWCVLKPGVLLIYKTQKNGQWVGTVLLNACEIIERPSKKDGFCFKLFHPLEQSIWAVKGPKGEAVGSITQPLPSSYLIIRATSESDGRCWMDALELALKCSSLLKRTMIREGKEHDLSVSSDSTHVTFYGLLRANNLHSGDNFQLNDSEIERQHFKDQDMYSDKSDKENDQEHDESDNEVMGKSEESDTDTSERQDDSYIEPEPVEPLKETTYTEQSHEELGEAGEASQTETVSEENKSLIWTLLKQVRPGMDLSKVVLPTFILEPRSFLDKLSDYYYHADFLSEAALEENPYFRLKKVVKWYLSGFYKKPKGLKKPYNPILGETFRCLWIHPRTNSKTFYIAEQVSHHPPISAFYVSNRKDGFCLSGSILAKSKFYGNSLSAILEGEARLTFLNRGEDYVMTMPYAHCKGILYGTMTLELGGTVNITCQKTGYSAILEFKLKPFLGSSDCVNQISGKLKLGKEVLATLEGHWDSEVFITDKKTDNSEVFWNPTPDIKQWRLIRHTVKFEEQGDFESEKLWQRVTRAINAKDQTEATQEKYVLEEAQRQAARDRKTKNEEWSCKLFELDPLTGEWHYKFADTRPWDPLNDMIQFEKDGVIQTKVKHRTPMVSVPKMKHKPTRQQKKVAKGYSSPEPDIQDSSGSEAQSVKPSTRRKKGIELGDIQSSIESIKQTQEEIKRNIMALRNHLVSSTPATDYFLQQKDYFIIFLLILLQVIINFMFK
UniProt Q96E52: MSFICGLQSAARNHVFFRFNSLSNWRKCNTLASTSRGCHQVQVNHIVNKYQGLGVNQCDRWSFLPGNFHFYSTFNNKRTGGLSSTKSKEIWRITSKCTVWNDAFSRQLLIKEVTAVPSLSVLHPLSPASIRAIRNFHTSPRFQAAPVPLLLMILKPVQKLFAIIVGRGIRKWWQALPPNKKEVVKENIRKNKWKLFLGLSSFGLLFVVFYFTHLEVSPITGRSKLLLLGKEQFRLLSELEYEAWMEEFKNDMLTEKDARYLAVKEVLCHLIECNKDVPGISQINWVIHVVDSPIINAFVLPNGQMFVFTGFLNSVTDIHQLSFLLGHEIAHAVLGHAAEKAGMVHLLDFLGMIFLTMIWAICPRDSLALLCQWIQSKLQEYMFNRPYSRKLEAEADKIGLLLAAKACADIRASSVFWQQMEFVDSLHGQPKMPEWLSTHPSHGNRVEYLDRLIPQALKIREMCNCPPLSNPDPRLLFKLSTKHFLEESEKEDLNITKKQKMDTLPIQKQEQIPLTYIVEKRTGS
UniProt Q86WC4: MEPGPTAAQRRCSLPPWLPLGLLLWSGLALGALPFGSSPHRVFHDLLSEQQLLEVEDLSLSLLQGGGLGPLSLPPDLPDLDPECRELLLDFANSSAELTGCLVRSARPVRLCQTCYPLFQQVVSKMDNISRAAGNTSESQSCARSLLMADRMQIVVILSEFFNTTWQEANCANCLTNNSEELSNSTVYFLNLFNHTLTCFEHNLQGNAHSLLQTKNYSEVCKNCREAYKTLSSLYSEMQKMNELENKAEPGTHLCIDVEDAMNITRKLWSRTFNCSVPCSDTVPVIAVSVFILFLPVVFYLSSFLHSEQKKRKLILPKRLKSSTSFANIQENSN
UniProt Q13177, whole entry, looked up: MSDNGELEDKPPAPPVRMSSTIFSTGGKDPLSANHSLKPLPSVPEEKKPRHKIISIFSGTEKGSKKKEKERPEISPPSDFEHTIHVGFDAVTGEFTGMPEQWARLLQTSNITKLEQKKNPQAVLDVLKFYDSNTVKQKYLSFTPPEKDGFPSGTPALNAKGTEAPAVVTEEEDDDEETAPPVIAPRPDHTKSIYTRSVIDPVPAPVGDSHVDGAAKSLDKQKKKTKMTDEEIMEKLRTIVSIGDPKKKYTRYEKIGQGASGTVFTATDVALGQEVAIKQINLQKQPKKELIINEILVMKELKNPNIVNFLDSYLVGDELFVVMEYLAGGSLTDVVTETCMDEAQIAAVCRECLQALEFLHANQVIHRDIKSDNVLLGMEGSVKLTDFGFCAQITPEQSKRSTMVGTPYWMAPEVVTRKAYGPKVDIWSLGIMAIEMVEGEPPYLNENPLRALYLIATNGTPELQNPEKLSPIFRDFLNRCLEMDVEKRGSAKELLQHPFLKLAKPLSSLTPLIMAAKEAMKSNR
UniProt P00480: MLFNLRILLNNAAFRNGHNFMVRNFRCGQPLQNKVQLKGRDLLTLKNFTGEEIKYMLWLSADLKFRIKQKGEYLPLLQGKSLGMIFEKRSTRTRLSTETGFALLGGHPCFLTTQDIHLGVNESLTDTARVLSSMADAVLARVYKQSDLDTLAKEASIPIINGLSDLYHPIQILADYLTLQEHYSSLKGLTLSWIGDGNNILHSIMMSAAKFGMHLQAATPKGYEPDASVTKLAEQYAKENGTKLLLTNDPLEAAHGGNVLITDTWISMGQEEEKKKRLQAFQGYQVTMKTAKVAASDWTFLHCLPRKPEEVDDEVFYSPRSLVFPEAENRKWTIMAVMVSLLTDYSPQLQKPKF
UniProt O43252: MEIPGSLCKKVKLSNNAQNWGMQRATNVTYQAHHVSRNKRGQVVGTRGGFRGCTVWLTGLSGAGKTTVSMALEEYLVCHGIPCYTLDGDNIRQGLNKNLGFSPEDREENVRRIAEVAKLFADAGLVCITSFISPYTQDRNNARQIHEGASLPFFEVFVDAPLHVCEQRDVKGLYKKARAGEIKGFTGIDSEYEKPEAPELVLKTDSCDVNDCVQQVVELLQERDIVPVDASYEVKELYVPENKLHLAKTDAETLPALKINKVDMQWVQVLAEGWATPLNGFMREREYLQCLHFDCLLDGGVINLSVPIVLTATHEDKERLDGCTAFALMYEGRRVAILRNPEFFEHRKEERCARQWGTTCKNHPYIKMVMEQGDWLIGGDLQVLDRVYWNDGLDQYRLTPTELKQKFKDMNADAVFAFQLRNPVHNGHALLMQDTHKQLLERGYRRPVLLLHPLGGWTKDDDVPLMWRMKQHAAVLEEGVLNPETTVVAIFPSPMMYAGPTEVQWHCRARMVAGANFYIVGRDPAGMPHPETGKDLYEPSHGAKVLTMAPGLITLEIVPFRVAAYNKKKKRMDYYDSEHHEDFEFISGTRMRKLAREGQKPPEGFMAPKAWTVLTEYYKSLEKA
UniProt Q9NWT1: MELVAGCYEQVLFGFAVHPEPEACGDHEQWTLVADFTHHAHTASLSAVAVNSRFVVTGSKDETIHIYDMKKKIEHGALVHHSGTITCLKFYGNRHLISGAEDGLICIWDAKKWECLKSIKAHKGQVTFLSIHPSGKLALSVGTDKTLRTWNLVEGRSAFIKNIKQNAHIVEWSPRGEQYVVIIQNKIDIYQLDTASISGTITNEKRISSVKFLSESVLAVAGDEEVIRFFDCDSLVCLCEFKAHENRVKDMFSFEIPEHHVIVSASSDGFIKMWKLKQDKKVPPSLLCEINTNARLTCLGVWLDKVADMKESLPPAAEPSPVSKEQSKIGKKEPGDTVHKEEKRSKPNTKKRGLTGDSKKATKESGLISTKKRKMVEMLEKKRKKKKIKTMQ
UniProt Q9NVE7: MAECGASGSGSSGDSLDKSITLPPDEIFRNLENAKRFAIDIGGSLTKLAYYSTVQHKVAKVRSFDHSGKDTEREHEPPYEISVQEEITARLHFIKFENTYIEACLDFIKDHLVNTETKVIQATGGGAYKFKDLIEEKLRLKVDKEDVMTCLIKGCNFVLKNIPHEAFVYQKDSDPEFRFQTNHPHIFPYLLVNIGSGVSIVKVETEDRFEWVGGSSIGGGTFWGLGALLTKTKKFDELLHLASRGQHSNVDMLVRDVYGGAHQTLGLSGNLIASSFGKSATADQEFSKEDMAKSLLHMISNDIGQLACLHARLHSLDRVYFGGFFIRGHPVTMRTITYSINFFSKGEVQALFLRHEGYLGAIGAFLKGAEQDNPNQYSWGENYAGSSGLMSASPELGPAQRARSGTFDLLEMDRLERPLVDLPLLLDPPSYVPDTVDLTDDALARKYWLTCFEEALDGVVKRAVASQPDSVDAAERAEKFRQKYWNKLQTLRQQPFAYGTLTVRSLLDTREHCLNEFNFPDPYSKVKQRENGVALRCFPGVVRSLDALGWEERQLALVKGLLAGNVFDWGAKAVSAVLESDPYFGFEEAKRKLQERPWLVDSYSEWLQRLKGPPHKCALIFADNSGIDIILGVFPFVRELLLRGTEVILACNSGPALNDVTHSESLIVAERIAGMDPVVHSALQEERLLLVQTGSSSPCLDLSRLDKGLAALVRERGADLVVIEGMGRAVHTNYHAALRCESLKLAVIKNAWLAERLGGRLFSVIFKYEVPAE
UniProt O14841: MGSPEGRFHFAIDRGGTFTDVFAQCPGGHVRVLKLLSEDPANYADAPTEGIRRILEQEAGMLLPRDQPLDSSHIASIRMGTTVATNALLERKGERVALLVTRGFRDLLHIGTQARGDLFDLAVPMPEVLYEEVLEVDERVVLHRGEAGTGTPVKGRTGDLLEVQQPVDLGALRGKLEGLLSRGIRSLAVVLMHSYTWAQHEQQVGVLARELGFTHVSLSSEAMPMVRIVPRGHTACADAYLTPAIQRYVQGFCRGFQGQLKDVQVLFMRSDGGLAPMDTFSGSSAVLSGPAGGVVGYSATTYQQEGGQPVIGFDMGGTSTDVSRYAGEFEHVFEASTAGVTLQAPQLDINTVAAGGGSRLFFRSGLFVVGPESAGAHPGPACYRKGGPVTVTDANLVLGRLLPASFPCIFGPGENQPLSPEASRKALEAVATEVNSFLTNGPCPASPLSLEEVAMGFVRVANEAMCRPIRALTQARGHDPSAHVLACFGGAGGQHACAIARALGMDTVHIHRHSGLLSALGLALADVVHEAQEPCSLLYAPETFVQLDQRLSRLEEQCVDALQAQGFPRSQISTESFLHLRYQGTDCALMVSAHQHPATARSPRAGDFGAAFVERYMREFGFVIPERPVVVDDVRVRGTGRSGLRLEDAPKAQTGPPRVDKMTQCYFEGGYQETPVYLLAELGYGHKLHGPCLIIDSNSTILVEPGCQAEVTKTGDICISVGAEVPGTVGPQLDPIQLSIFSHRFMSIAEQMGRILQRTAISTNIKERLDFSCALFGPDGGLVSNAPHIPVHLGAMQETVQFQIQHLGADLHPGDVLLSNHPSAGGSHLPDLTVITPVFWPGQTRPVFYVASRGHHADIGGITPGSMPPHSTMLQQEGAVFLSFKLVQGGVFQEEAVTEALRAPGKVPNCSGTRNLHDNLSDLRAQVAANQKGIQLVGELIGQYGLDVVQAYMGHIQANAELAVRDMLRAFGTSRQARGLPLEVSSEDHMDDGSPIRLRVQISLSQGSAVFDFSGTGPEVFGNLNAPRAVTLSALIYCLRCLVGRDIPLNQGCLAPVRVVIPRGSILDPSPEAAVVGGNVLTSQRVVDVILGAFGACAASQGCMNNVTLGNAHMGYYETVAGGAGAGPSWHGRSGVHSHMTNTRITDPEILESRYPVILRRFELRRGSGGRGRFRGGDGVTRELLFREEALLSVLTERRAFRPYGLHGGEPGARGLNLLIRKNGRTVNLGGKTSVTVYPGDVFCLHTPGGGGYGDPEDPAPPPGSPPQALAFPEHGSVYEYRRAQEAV
UniProt Q8N1F7: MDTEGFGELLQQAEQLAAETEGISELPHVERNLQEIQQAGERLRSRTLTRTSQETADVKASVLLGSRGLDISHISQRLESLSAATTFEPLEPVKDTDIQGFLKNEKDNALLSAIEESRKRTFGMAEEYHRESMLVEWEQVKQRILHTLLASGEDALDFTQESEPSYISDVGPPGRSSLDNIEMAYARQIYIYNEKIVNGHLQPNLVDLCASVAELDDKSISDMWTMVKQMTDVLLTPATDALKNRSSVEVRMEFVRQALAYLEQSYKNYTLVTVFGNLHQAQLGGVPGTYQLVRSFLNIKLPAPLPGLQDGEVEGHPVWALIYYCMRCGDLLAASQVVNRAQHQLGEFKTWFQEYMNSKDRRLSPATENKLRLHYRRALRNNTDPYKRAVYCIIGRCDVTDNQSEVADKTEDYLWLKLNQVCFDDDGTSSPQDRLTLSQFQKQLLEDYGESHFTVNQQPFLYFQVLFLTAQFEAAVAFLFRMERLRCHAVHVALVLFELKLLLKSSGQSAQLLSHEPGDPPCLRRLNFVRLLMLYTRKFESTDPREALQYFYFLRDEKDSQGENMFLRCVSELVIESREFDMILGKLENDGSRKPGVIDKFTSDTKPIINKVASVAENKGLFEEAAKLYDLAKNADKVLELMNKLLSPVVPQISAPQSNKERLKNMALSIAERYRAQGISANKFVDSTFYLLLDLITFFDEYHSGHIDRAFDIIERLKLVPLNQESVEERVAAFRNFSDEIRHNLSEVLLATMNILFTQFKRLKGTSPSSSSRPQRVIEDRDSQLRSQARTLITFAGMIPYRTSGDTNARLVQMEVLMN

What was measured:
Assay in all cases: log2 fold change, soluble protein after heating vs DMSO (PISA); higher = thermal stabilisation; K562 lysate, 10 uM; active = over 0.2 and 3.5 SD of the protein, either way, in both replicates (recomputed)
erlotinib = compound: C#Cc1cccc(Nc2ncnc3cc(OCCOC)c(OCCOC)cc23)c1 [erlotinib]
In short: (§1)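 K562 pellets were dounce-homogenised in PBS pH 7.4 containing 1 mM MgCl2, and the crude extract, at 1 mg/mL protein, was exposed to 10 μM compound for 30 min. Aliquots were heated for 3 min across 48°C-58°C, pooled, brought to 0.5% NP-40 at 4°C and spun at 21,000xg for 90 min, with the supernatant taken as soluble protein. TMTpro 16plex LC-MS/MS with equalised channel sums quantified that protein. Values are log-two fold changes in thermal stability relative to solvent controls, taken from duplicates.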

[1] = compound: C/C(=N\NC(=O)C1=CC(=CC=C1)S(=O)(=O)N2CCOCC2)/C3=C(C=CC(=C3)Cl)O
In short: as §1

[2] = compound: C1=CC(=CC=C1C2=NC3=C(N2)C=C(C=C3)C(=O)N)OC4=CC=C(C=C4)Cl
In short: as §1

[3] = compound: C1=CC2=C(C=CC(=C2)/C=C\3/C(=O)NC(=NCC4=CC=CS4)S3)N=C1
In short: as §1

[4] = compound: C1=CC2=NC=CN=C2C=C1/C=C/3\C(=O)NC(=O)S3
In short: as §1

[5] = compound: C1=CC=C(C=C1)C2=NC(=C(N2)C3=CC=NC=C3)C4=CC(=C(C=C4)Cl)O
In short: as §1

[6] = compound: C1=CC=C2C(=C1)C3=NNC4=CC=CC(=C43)C2=O
In short: as §1

[7] = compound: C1CCN(C1)C(=O)NC2=CC=CC(=C2)NC3=NC=C(C(=N3)NCCC4=CN=CN4)Br
In short: as §1

[8] = compound: C1CN(CCC1(CC2=CC=C(C=C2)Cl)N)C3=NC=NC4=C3C=CN4
In short: as §1

IRAK-1-4 Inhibitor I = compound: C1COCCN1CCN2C3=CC=CC=C3N=C2NC(=O)C4=CC(=CC=C4)[N+](=O)[O-] [IRAK-1-4 Inhibitor I]
In short: as §1

Measured: log2 fold change

OSBPL8 (UniProt Q9BZF1)
inactive: erlotinib -0.003 | [1] 0.094 | [2] -0.056 | [3] -0.015 | [4] -0.052 | [5] -0.049 | [6] -0.085 | [7] -0.12 | [8] 0.021 | IRAK-1-4 Inhibitor I 0.03

OMA1 (UniProt Q96E52)
inactive: erlotinib -0.029 | [1] -0.002 | [2] -0.07 | [3] -0.007 | [4] 0.036 | [5] 0.005 | [6] 0.008 | [7] 0.021 | [8] -0.025 | IRAK-1-4 Inhibitor I 0.028

OBSL1 (UniProt O75147)
inactive: erlotinib -0.007 | [1] -0.1 | [2] -0.004 | [3] 0.03 | [4] -0.09 | [5] 0.032 | [6] 0.013 | [7] -0.005 | [8] 0.046 | IRAK-1-4 Inhibitor I -0.037

PAAT (UniProt Q9H8K7)
inactive: erlotinib 0.003 | [1] 0.078 | [2] 0.109 | [3] 0.017 | [4] 0.016 | [5] 0.029 | [6] -0.017 | [7] 0.02 | [8] -0.026 | IRAK-1-4 Inhibitor I -0.004

P4HA1 isoform 2 (UniProt P13674)
inactive: erlotinib -0.039 | [1] 0.098 | [2] -0.069 | [3] -0.06 | [4] -0.118 | [5] -0.077 | [6] 0 | [7] -0.044 | [8] -0.026 | IRAK-1-4 Inhibitor I -0.062

PAFAH2 (UniProt Q99487)
inactive: erlotinib 0.005 | [1] -0.308 | [2] 0.048 | [3] 0.04 | [4] 0 | [5] 0.017 | [6] 0.08 | [7] 0.001 | [8] -0.064 | IRAK-1-4 Inhibitor I 0.015

NUS1 (UniProt Q96E22)
inactive: erlotinib 0.031 | [1] -0.04 | [2] 0.015 | [3] 0.112 | [4] -0.056 | [5] 0.013 | [6] -0.056 | [7] 0.002 | [8] 0.092 | IRAK-1-4 Inhibitor I -0.008

OSTM1 (UniProt Q86WC4)
inactive: erlotinib -0.066 | [1] 0.009 | [2] -0.003 | [3] 0.045 | [4] 0.003 | [5] -0.044 | [6] -0.028 | [7] -0.002 | [8] -0.017 | IRAK-1-4 Inhibitor I -0.031

2 records drawn at random from the list so far, as already listed:
OSBPL8 (UniProt Q9BZF1)
inactive: erlotinib -0.003 | [1] 0.094 | [2] -0.056 | [3] -0.015 | [4] -0.052 | [5] -0.049 | [6] -0.085 | [7] -0.12 | [8] 0.021 | IRAK-1-4 Inhibitor I 0.03

PAAT (UniProt Q9H8K7)
inactive: erlotinib 0.003 | [1] 0.078 | [2] 0.109 | [3] 0.017 | [4] 0.016 | [5] 0.029 | [6] -0.017 | [7] 0.02 | [8] -0.026 | IRAK-1-4 Inhibitor I -0.004

The list continues:

PAK2 (UniProt Q13177)
inactive: erlotinib -0.029 | [1] -0.009 | [2] -0.016 | [3] -0.004 | [4] -0.016 | [5] 0.002 | [6] 0.034 | [7] -0.01 | [8] -0.005 | IRAK-1-4 Inhibitor I -0.021

OPTN (UniProt Q96CV9)
inactive: erlotinib -0.04 | [1] -0.004 | [2] 0.025 | [3] 0.007 | [4] -0.049 | [5] 0.037 | [6] 0.043 | [7] 0.04 | [8] 0.004 | IRAK-1-4 Inhibitor I -0.011

OTC (UniProt P00480)
inactive: erlotinib 0.09 | [1] 0.138 | [2] -0.096 | [3] -0.121 | [4] -0.049 | [5] -0.074 | [6] -0.069 | [7] -0.074 | [8] -0.095 | IRAK-1-4 Inhibitor I 0.125

PAK1 (UniProt Q13153)
inactive: erlotinib 0.043 | [1] 0.018 | [2] 0.01 | [3] -0.017 | [4] 0.01 | [5] -0.014 | [6] 0.018 | [7] 0.028 | [8] 0.041 | IRAK-1-4 Inhibitor I -0.007

PAPSS1 (UniProt O43252)
inactive: erlotinib -0.021 | [1] -0.038 | [2] 0.003 | [3] -0.013 | [4] 0.003 | [5] 0.001 | [6] -0.03 | [7] -0.018 | [8] -0.001 | IRAK-1-4 Inhibitor I 0.007

P2RX4 isoform 2 (UniProt Q99571)
inactive: erlotinib 0.066 | [1] -0.056 | [2] 0.077 | [3] -0.154 | [4] 0.057 | [5] 0.066 | [6] -0.093 | [7] 0.035 | [8] 0.057 | IRAK-1-4 Inhibitor I -0.029

PAK1IP1 (UniProt Q9NWT1)
inactive: erlotinib 0.006 | [1] -0.021 | [2] -0.01 | [3] 0.042 | [4] 0.006 | [5] 0.014 | [6] 0.044 | [7] 0.029 | [8] -0.012 | IRAK-1-4 Inhibitor I 0.001

PANK4 (UniProt Q9NVE7)
inactive: erlotinib 0.013 | [1] -0.012 | [2] 0.003 | [3] 0.051 | [4] 0.033 | [5] 0.003 | [6] -0.052 | [7] -0.002 | [8] 0.018 | IRAK-1-4 Inhibitor I 0.018

OPLAH (UniProt O14841)
inactive: erlotinib 0.044 | [1] 0.005 | [2] -0.017 | [3] 0.03 | [4] 0.106 | [5] 0.041 | [6] 0.007 | [7] 0.013 | [8] -0.017 | IRAK-1-4 Inhibitor I -0.014

PABPC4 isoform 3 (UniProt Q13310)
inactive: erlotinib -0.007 | [1] -0.032 | [2] -0.022 | [3] 0.005 | [4] -0.01 | [5] -0.003 | [6] 0.024 | [7] -0.014 | [8] 0.001 | IRAK-1-4 Inhibitor I -0.025

PAF1 (UniProt Q8N7H5)
inactive: erlotinib 0.022 | [1] 0.021 | [2] 0 | [3] 0.027 | [4] -0.03 | [5] 0.018 | [6] -0.011 | [7] -0.017 | [8] 0 | IRAK-1-4 Inhibitor I -0.012

NUP54 (UniProt Q7Z3B4)
inactive: erlotinib -0.01 | [1] -0.027 | [2] 0.033 | [3] 0.027 | [4] -0.015 | [5] -0.059 | [6] -0.01 | [7] -0.026 | [8] -0.01 | IRAK-1-4 Inhibitor I -0.026

PAGE5 (UniProt Q96GU1)
inactive: erlotinib 0.074 | [1] 0.05 | [2] -0.027 | [3] 0.034 | [4] -0.019 | [5] -0.049 | [6] 0.059 | [7] -0.074 | [8] -0.006 | IRAK-1-4 Inhibitor I -0.103

PAGE1 (UniProt O75459)
inactive: erlotinib 0.004 | [1] -0.028 | [2] 0.089 | [3] -0.03 | [4] -0.007 | [5] -0.001 | [6] -0.075 | [7] 0.056 | [8] -0.045 | IRAK-1-4 Inhibitor I -0.022

OXSM (UniProt Q9NWU1)
inactive: erlotinib -0.031 | [1] 0.013 | [2] 0.003 | [3] -0.014 | [4] 0.021 | [5] -0.008 | [6] 0.032 | [7] -0.009 | [8] 0.048 | IRAK-1-4 Inhibitor I 0.057

NUP93 (UniProt Q8N1F7)
inactive: erlotinib 0.025 | [1] 0.058 | [2] -0.042 | [3] 0.021 | [4] 0.032 | [5] -0.022 | [6] -0.049 | [7] 0.002 | [8] 0.015 | IRAK-1-4 Inhibitor I -0.022

ORC3 isoform 2 (UniProt Q9UBD5)
inactive: erlotinib -0.006 | [1] -0.048 | [2] -0.046 | [3] 0.004 | [4] 0.053 | [5] -0.011 | [6] -0.045 | [7] -0.015 | [8] -0.007 | IRAK-1-4 Inhibitor I -0.008

OSBPL2 (UniProt Q9H1P3)
inactive: erlotinib 0.049 | [1] 0.057 | [2] 0.002 | [3] 0 | [4] -0.052 | [5] 0.014 | [6] -0.042 | [7] -0.013 | [8] 0 | IRAK-1-4 Inhibitor I -0.014

PAAF1 (UniProt Q9BRP4)
inactive: erlotinib -0.008 | [1] 0.031 | [2] 0.012 | [3] 0.007 | [4] 0.014 | [5] -0.014 | [6] -0.004 | [7] 0.018 | [8] 0.018 | IRAK-1-4 Inhibitor I -0.003

NUP188 (UniProt Q5SRE5)
inactive: erlotinib 0.066 | [1] 0.011 | [2] -0.01 | [3] 0.004 | [4] -0.007 | [5] -0.03 | [6] -0.034 | [7] 0.027 | [8] -0.003 | IRAK-1-4 Inhibitor I 0.023

OCIAD1 (UniProt Q9NX40)
inactive: erlotinib 0.006 | [1] 0.047 | [2] 0.018 | [3] 0.001 | [4] 0.002 | [5] 0.024 | [6] 0.003 | [7] -0.008 | [8] 0.019 | IRAK-1-4 Inhibitor I 0.02
